From patent US11648236B2, “Methods of treating coronavirus” (priority 2020, dated 2023)
At least one structure is not confirmed: it was looked up by name or label, or the drawing left a doubt.

Experiments:
COVID-19 [1] = format: in vivo, human; details: standard of care in both groups
COVID-19 [2] = details: all hospitalized patients; vs. 25.7% for usual care; cited from earlier work

Compound | Effect of use as standard of care on patient outcomes in the study (COVID-19 [1]) | 28-day mortality (COVID-19 [2])
C[C@@H]1C[C@H]2[C@@H]3CCC4=CC(=O)C=C[C@]4(C)[C@@]3(F)[C@@H](O)C[C@]2(C)[C@@]1(O)C(=O)CO [dexamethasone] | did not have a significant effect | 22.9%
CCC(CC)COC(=O)[C@H](C)N[P@](=O)(OC[C@H]1O[C@@](C#N)(c2ccc3c(N)ncnn23)[C@H](O)[C@@H]1O)Oc1ccccc1 [remdesivir] | did not have a significant effect | –
